Earlier results in patent US8377667B2, “Microorganisms for the production of 1,4-butanediol, 4-hydroxybutanal, 4-hydroxybutyryl-CoA, putrescine and related compounds, and methods related thereto” (Genomatica, Inc., priority 2009, dated 2013).
At least one compound was matched to its structure with a doubt left.

System: aminotransferase from Leishmania mexicana
Conditions: activity considered 100% on tyrosine; cited from earlier work

SMILES: N[C@@H](CC(=O)O)C(=O)O [aspartate]
- activity (substrate specificity): 30%
